According to PubChem BioAssay AID504444 (National Center for Advancing Translational Sciences (NCATS), 2011):
Hit rate of the full screen: of about 360,000 compounds, about 7,500 (2.1%) were called active. The inconclusive results got no clear call from the source; some entries with a clear call stand among them for comparison. Calls come from the whole dose curve; as a rule, active = well fitted inhibition curve with a large enough effect; inconclusive = small, poorly fitted or top-dose-only effect, or effect the other way; inactive = flat fitted curve, though single readings scatter. A potency beside an inconclusive call is a rough fit, not a confirmed value.

experiment: Nrf2 qHTS screen for inhibitors; conditions: A549 ARE-Fluc reporter, luciferase luminescence, 18-24 h; activity change, negative = inhibition: at 46 µM (top of the series); note: nearly all actives have a fitted effect of over 60% in size
Method in brief: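 A549 ARE_Fluc cells (5000/well, 5% FBS OPTI-MEM) pre-incubated 2 h, then treated with compounds 18-24 h at 37C/5% CO2 in concentration-response. CellTiter-Fluor viability read first; BugLite luciferase luminescence after 15 min at room temperature gives Nrf2 activity.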
% is set by controls: 0 for no effect and ±100 for the full control effect; potency is the fitted concentration of half-maximal effect.

Structure (SMILES) | Potency | activity change, negative = inhibition
Cc1c(C(=O)N2CCN(c3ccccc3F)CC2)sc2nc(-c3ccccc3)cn12 | inconclusive: 29.1 µM [falling, single point] | –
Cc1nc2c(-c3ccc(F)cc3)c(C)nn2c(C)c1CCC(=O)NC(C)CCc1ccco1 (configuration not stated) | inconclusive: 20.6 µM [falling, single point] | –
COc1cc(OC)cc(C2C(C#N)=C(N)Oc3n[nH]c(-c4cccnc4)c32)c1 (configuration not stated) | inconclusive: 29.1 µM [activator, single point] | –
CC(=O)C1C(c2ccc(Br)cc2)c2c(noc2C)CC1(C)O (configuration not stated) | inconclusive: 8.2 µM [falling, partial curve, poor fit] | –
COC(=O)c1c(C)[nH]c(C(=O)OC(C)C(=O)N2CCOCC2)c1C (configuration not stated) | inconclusive: 16.4 µM [activator, partial curve] | –
Cc1ccc(Cl)cc1N1CCN(C(=O)Cn2ncn3cccc3c2=O)CC1 | inconclusive: 10.3 µM [falling, partial curve] | –
CCOc1ccc(C(=S)NC2CCCCC2)cc1 | inconclusive: 4.11 µM [activator, full curve, poor fit] | –
CC(C)OC(=O)CSc1nnc(-c2ccc([N+](=O)[O-])cc2)o1 | – | inactive: 1.23%
CCN(C(=O)Cn1c(=O)oc2cc(S(=O)(=O)N3CCCCC3)ccc21)c1ccccc1 | inconclusive: 2.06 µM [falling, partial curve, poor fit] | –
CCc1cccc(NC(=O)CCc2c(C)nc3c(-c4ccccc4)c(C)nn3c2C)c1 | inconclusive: 20.6 µM [falling, single point] | –
COc1cc(CCC(=O)Nc2cnc3ccccc3c2)cc(OC)c1OC | inconclusive: 29.1 µM [falling, single point] | –
CC(C)C(=O)Nc1cccc(C(=O)Nc2cc([N+](=O)[O-])ccc2F)c1 | inconclusive: 29.1 µM [falling, single point] | –
Nc1ccc2c(c1)C(=O)N(c1ccc3ccccc3c1)C2=O | inconclusive: 16.4 µM [activator, partial curve] | –
COCc1nnc(NC(=O)c2ccc(OC)cc2OC)s1 | inconclusive: 29.1 µM [activator, single point] | –
COc1ccc(CCC(=O)N2CCN(S(=O)(=O)c3cccc(C(F)(F)F)c3)CC2)cc1OC | inconclusive: 1.46 µM [falling, partial curve, poor fit] | –
COc1ccc(NC(=O)CN2CCN(Cc3ccccc3Cl)S2(=O)=O)cc1Cl | inconclusive: 14.6 µM [falling, partial curve] | –
Cc1csc(SCC(=O)Nc2cc(S(=O)(=O)N3CCOCC3)ccc2N2CCOCC2)n1 | inconclusive: 20.6 µM [falling, single point] | –
N#Cc1cccnc1Nc1cccc(Cl)c1 | inconclusive: 25.9 µM [activator, single point] | –
Clc1ccc(OCc2cn3cccnc3n2)c2ncccc12 | inconclusive: 1.64 µM [activator, partial curve, poor fit] | –
O=C(Nc1ccc(S(=O)(=O)N2CCCC2)cc1)c1ccccc1 | inconclusive: 0.58 µM [falling, full curve, poor fit] | –
C/C(O)=C\c1nc2ccccc2oc1=O | – | inactive: -7.59%

Filtered by structure, those above with sulfur (9)
Structure (SMILES) | Potency | activity change, negative = inhibition
Cc1c(C(=O)N2CCN(c3ccccc3F)CC2)sc2nc(-c3ccccc3)cn12 | inconclusive: 29.1 µM [falling, single point] | –
CCOc1ccc(C(=S)NC2CCCCC2)cc1 | inconclusive: 4.11 µM [activator, full curve, poor fit] | –
CC(C)OC(=O)CSc1nnc(-c2ccc([N+](=O)[O-])cc2)o1 | – | inactive: 1.23%
CCN(C(=O)Cn1c(=O)oc2cc(S(=O)(=O)N3CCCCC3)ccc21)c1ccccc1 | inconclusive: 2.06 µM [falling, partial curve, poor fit] | –
COCc1nnc(NC(=O)c2ccc(OC)cc2OC)s1 | inconclusive: 29.1 µM [activator, single point] | –
COc1ccc(CCC(=O)N2CCN(S(=O)(=O)c3cccc(C(F)(F)F)c3)CC2)cc1OC | inconclusive: 1.46 µM [falling, partial curve, poor fit] | –
COc1ccc(NC(=O)CN2CCN(Cc3ccccc3Cl)S2(=O)=O)cc1Cl | inconclusive: 14.6 µM [falling, partial curve] | –
Cc1csc(SCC(=O)Nc2cc(S(=O)(=O)N3CCOCC3)ccc2N2CCOCC2)n1 | inconclusive: 20.6 µM [falling, single point] | –
O=C(Nc1ccc(S(=O)(=O)N2CCCC2)cc1)c1ccccc1 | inconclusive: 0.58 µM [falling, full curve, poor fit] | –

(more compounds)

Structure (SMILES) | Potency | activity change, negative = inhibition
Cc1cc(C)c(S(=O)(=O)N2CCCOC2CNC(=O)C(=O)NCCc2c[nH]c3ccccc23)c(C)c1 (configuration not stated) | inconclusive: 20.6 µM [falling, single point] | –
CC1(C)CC(=O)c2sc(NC(=O)C(C)(C)C)nc2C1 | inconclusive: 11.6 µM [activator, partial curve] | –
Cc1cc(C)nc(NS(=O)(=O)c2ccc(NC(=O)c3snnc3C)cc2)n1 | – | inactive: 2.55%
CC(=O)Nc1sc2c(c1C(c1ccccn1)N1CCCC1)CCCC2 (configuration not stated) | inconclusive: 11.6 µM [falling, partial curve, poor fit] | –
O=C(Nc1cccnc1Cl)c1cc([N+](=O)[O-])ccc1Cl | inconclusive: 32.6 µM [activator, partial curve, poor fit] | –
Cc1csc2nc(O)c(C(=O)NC3CCCCC3)c(=O)n12 | inconclusive: 8.2 µM [falling, partial curve] | –
O=C(C1=C[C@H](c2csc3ccccc23)C[C@H](OCCCCO)O1)N1CCN(Cc2ccc3c(c2)OCO3)CC1 | inconclusive: 18.4 µM [falling, single point] | –
COc1cccc(C(=O)NNC(=O)c2ccccc2)c1 | inconclusive: 5.17 µM [activator, single point] | –
CSc1sc(C)cc1C1C(C#N)=C(N)N(c2cccnc2)C2=C1C(=O)CCC2 (configuration not stated) | inconclusive: 29.1 µM [falling, single point] | –
CC(C)CNC(=O)COC(=O)c1ccc(F)cc1Cl | inconclusive: 11.6 µM [falling, partial curve, poor fit] | –
CSCCC(NC(=O)c1ccco1)c1nc2ccccc2[nH]1 (configuration not stated) | – | inactive: -0.991%
COc1ccc(CCNC(=O)CSc2nnc3ccccn23)cc1 | – | inactive: 3%
COc1ccc(-c2csc(NC(=O)c3cccc(S(=O)(=O)N4CCN(C)CC4)c3)n2)cc1 | active: 14.6 µM | –
COc1ccccc1NC(=O)/C=C1\SCC(=O)N1C | inconclusive: 20.6 µM [activator, single point] | –
CCOC(=O)C1=C(O)C(=O)NC(c2ccccc2)=C(OC2CCCCC2)C1 | – | inactive: 0.439%
Cc1c(C)c2cc3c(c(C)c2oc1=O)OCN(CCc1ccccc1)C3 | – | inactive: 14.2%
CCOC(=O)CSC1=NC(=O)CS1 | – | inactive: -36.8%
Cc1cc(C)cc(N2CCn3c2nc2c3c(=O)n(C/C=C/c3ccccc3)c(=O)n2C)c1 | inconclusive: 32.6 µM [activator, single point] | –
c1ccc(CCNc2ncnc3scc(C4COc5ccccc5O4)c23)cc1 (configuration not stated) | inconclusive: 20.6 µM [falling, single point] | –
COc1cc(CNS(=O)(=O)c2ccc3c(c2)CC(C)N3C(C)=O)cc(OC)c1OC (configuration not stated) | inconclusive: 11.6 µM [activator, partial curve, poor fit] | –
O=C1C2C3C=CC(C3)C2C(=O)N1c1n[nH]c(CCc2ccccc2)n1 (configuration not stated) | inconclusive: 0.0041 µM [falling, full curve, poor fit] | –
